For one substance, binding results are on record in publication PMC3655187.

The target in this assay is PaAG (Platanus acerifolia AGAMOUS), protein encoded by PaAG-1 (Platanus acerifolia) (UniProt K9UTE4). In words: two-hybrid; GAL4 system in yeast strain AH109; bait in pGBKT7 (GAL4 binding domain), prey in pGADT7-Rec (GAL4 activation domain); co-transformed cells tested on selective SD medium without leucine, tryptophan, histidine and adenine.

Results are given in words; binding and its absence hold for the method and conditions named. A result given as binding can be weak or reduced; the word gives no strength.

As for “PaAP3 (the APETALA3 ortholog in P. acerifolia) (from UniProt A4UTT8)”, the binding entry was “binds”.
